Laboratory results taken from PubChem BioAssay AID504327 (National Center for Advancing Translational Sciences (NCATS), 2011).
About 820 (0.21%) of roughly 390,000 compounds were called active. This list was built around the results that the source calls inconclusive (neither active nor inactive); the mix of calls is not that of the screen. The call rests on the fitted dose curve; in most records, active means well fitted inhibition curve with a large enough effect; inconclusive means small, poorly fitted or top-dose-only effect, or another doubt; inactive means no such curve, though single readings can be large or run the other way. Potencies of inconclusive entries are doubtful fits and often do not repeat.

The chains behind the UniProt entries cited, without tags or fusion partners.
UniProt Q92830, whole entry, looked up: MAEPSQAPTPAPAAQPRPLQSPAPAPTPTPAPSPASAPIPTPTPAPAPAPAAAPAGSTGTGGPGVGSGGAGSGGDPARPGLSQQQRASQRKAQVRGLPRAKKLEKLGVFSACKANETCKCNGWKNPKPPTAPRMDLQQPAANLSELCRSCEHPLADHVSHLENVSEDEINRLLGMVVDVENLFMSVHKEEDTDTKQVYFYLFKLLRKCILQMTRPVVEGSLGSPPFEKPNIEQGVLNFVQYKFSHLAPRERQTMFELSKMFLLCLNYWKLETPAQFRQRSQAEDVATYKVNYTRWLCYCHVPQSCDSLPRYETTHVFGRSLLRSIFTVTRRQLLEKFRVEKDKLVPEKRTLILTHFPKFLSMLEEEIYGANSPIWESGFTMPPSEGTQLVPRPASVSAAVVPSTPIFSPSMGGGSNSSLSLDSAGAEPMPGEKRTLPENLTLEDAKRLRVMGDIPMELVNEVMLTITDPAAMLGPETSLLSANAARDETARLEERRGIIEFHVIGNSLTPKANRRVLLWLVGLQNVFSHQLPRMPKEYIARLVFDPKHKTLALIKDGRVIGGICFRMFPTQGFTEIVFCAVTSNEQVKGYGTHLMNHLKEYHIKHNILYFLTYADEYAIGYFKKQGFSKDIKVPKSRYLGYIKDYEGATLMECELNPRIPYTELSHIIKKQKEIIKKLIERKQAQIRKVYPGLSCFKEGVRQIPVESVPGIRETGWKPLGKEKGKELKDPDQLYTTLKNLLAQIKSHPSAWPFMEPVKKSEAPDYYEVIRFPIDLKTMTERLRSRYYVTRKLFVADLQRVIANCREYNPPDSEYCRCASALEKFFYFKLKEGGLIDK

target: Histone acetyltransferase KAT2A (Homo sapiens) (UniProt Q92830); test: qHTS Assay for Inhibitors of GCN5L2; conditions: GCN5L2 HAT assay, ThioGlo1 CoA-SH fluorescence; activity change, negative = inhibition: at 58.9 µM (top of the series) unless noted
Summary of the method: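 Preincubate 20nM GCN5L2 with compound 15 min, RT → add 50uM ThioGlo1 + 75uM H3(1-25) + 70uM acetyl-CoA → read fluorescence 0 and 20 min. Primary qHTS; fluorescent artifacts likely.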
On the % scale 0 is the no-effect control and ±100 the full control effect; potency means the concentration at half of the fitted maximal effect.

Compound	Potency	activity change, negative = inhibition
CC(SC1=NCCS1)C(=O)Nc1nnc(-c2ccc(Br)cc2)s1 (stereo not drawn)	inconclusive: 1.58 µM [inhibitor, full curve]	–
CC1CCCCC1NC(=O)COC(=O)c1c2c(nc3ccccc13)/C(=C/c1ccco1)CC2 (stereo not drawn)	inconclusive: 25.1 µM [inhibitor, partial curve]	–
CCOC(=O)CSc1nnc(-c2c[nH]c3ccccc23)o1	inconclusive: 7.08 µM [inhibitor, single point]	–
Cn1nc(-c2ccc(Cl)cc2)c2cc(C(=O)N3CCN(c4ccccc4)CC3)sc21	inactive	–
COc1cccc(N2CCN(C(=O)c3ccc(CS(=O)c4cccc(Cl)c4)o3)CC2)c1 (stereo not drawn)	inactive	–
O=C(Nc1ccc2oc(-c3cccnc3)nc2c1)c1ccc(-c2cccc(OC(F)(F)F)c2)o1	inactive	–
Cc1ccn2c(Nc3ccc4c(c3)OCO4)c(-c3ccc(O)cc3)nc2c1	inconclusive: 39.8 µM [inhibitor, single point]	–
CCOc1cc2c(C#N)c(N3CCCCC3)nc(N)c2c(N)n1	inactive	–
Cc1cccc(Cc2cnc(NC(=O)c3ccc4c(c3)CC(c3ccccc3)OC4=O)s2)c1 (stereo not drawn)	inactive	–
CC[C@@H](C)[C@H](NS(=O)(=O)c1cccc2ccccc12)C(=O)N[C@H](C=O)Cc1c[nH]c2ccccc12	inactive	–
CC1=NNC(=O)C1CCC(=O)N/N=C\c1ccccc1[N+](=O)[O-] (stereo not drawn)	inconclusive: 2.51 µM [inhibitor, single point]	–
O=C(NNS(=O)(=O)c1ccccc1)c1cccc(F)c1	inconclusive: 28.2 µM [inhibitor, partial curve]	–
CCC1CCCCN1S(=O)(=O)c1ccc(N2CCCCS2(=O)=O)cc1 (stereo not drawn)	inactive	–
CNc1nc(-c2ccccc2)cc(C)c1S(C)(=O)=O	inconclusive: 39.8 µM [inhibitor, single point]	–
CCOC(=O)c1cnn(-c2ccccc2)c1-c1ccncc1	inconclusive: 2.82 µM [inhibitor, single point]	–
CC(=O)Nc1ccc(-c2cn3cccnc3n2)cc1	inconclusive: 31.6 µM [inhibitor, single point]	–
COc1cccc(OCC(O)CN2CCN(C)CC2)c1 (stereo not drawn)	inactive	–
CCOc1ccccc1NC(=O)COc1cccc2c(=O)n(CCOC)ccc12	inactive	–
CC(C)(C)c1ccc2c(c1)OC(C(=O)N/N=C\c1ccc(-c3cccc(C(=O)O)c3)o1)CO2 (stereo not drawn)	inactive	–
CCOc1ccc(N(CC(=O)NC2CC3CCC2C3)S(=O)(=O)c2ccc(C)cc2)cc1 (stereo not drawn)	inconclusive: 28.2 µM [inhibitor, single point]	–
COc1ccc(NC(=O)C2CCN(S(=O)(=O)c3c(C)noc3/C=C/c3ccco3)CC2)cc1	inconclusive: 39.8 µM [inhibitor, single point]	–
O=C1C(Cl)=C(NC(=O)c2ccccc2)C(=O)C(Cl)=C1NC(=O)c1ccccc1	inconclusive: 31.6 µM [inhibitor, single point]	–
N=C1C(c2ccccc2)=C(O)CN1c1cccc(S(=O)(=O)Nc2cccc(C(F)(F)F)c2)c1	inactive	–

Compound	Potency	activity change, negative = inhibition
Cc1noc(C)c1COC(=O)COc1ccc(-c2ccccc2)cc1	inconclusive: 10 µM [inhibitor, partial curve]	–
Cc1ccc(N2C(=O)CC(n3ccnc3)C2=O)cc1C (stereo not drawn)	inconclusive: 0.562 µM [inhibitor, single point]	–
N#Cc1ccc(NC(=O)COC(=O)CCc2nc3ccccc3c(=O)[nH]2)cc1	inconclusive: 0.708 µM [inhibitor, full curve, poor fit]	–
CCOc1ccc(CNC(=O)c2ccc3[nH]c(C)c(C)c3c2)cc1OC	inconclusive: 0.708 µM [inhibitor, full curve, poor fit]	–
O=C1c2cccc3c(N4CCCCC4)ccc(c23)C(=O)N1c1ccccn1	inconclusive: 8.91 µM [inhibitor, single point]	–
Cc1ccc2c(c1)c1c(c(=O)n(-c3ccccc3C)c(=O)n1CC(=O)c1ccc(Cl)cc1)n2C	inconclusive: 8.91 µM [inhibitor, single point]	–
CCOC(=O)[C@H](CCc1ccccc1)N[C@@H](C)C(=O)N1CCC[C@H]1C(=O)O	inconclusive: 39.8 µM [inhibitor, single point]	–
c1ccc(-c2nc3ccccc3nc2-c2ccccn2)nc1	inactive	–
Cc1ccccc1NC(=O)CN(C)S(=O)(=O)c1ccc(-c2ccc(=O)[nH]n2)s1	inconclusive: 35.5 µM [inhibitor, single point]	–
COC(=O)/C(C)=C/CC12OC(C)(C)C3CC(C=C4C(=O)c5cc6c(c(CCC(C)(C)Cl)c5OC431)OC1(C)CCC(=C(C)C)C6C1)C2=O (stereo not drawn)	inactive	–
Cc1nn2cc(-c3ccccc3)nc2[nH]c1=O	inconclusive: 39.8 µM [inhibitor, single point]	–
Cn1c(=O)n(CCC(=O)O)c2ccccc21	inconclusive: 5.01 µM [inhibitor, single point]	–
CCOC(=O)c1[nH]c(C)c(CCC(=O)Nc2ccccc2C(=O)OC)c1C	inactive	–
Cc1ccccc1NC(=O)CN1C(=O)NC2(CCCCC2)C1=O	–	inconclusive: -97.9% [inhibitor] [at 0.501 µM]
COc1ccccc1NC(=O)C(C)NC(c1ccccc1)c1ccccc1 (stereo not drawn)	inconclusive: 1.26 µM [inhibitor, full curve]	–
O=C(c1ccc(C(F)(F)F)cc1)C1CCCN(C(=O)CCN2CCCO2)C1 (stereo not drawn)	inconclusive: 0.708 µM [inhibitor, single point]	–
Cc1coc2c1c(C)cc1oc(=O)c(CC(=O)NCC(=O)O)c(C)c12	inconclusive: 39.8 µM [inhibitor, single point]	–
COc1cccc(CNC(=O)CN2C(=O)N(c3ccc(C)cc3C)S(=O)(=O)c3ccccc32)c1OC	inactive	–
CC(C(=O)OCC(=O)c1ccccc1)N1C(=O)c2ccccc2C1=O (stereo not drawn)	inactive	–
O=C(O)c1c(-c2ccccc2)oc2ccc(OCc3c(F)cccc3Cl)cc12	inactive	–
CCc1sc(N(C(=O)Cc2ccccc2)c2cccc(F)c2)nc1-c1ccc(C)cc1	inconclusive: 3.98 µM [inhibitor, single point]	–
CCN1C(=NCC(C)C)N[C@@H](c2cccc(C(F)(F)F)c2)C(C(=O)OC)=C1C	inconclusive: 7.08 µM [inhibitor, single point]	–
O=C(O)c1ccccc1C(=O)N1CCN(c2ncccn2)CC1	inconclusive: 39.8 µM [inhibitor, single point]	–

Entries of single compounds from above:
`CCOC(=O)[C@H](CCc1ccccc1)N[C@@H](C)C(=O)N1CCC[C@H]1C(=O)O` is listed with Potency: inconclusive: 39.8 µM [inhibitor, single point]
`Cc1ccc(N2C(=O)CC(n3ccnc3)C2=O)cc1C` (stereo not drawn) is listed with Potency: inconclusive: 0.562 µM [inhibitor, single point]
`O=C(O)c1ccccc1C(=O)N1CCN(c2ncccn2)CC1` is listed with Potency: inconclusive: 39.8 µM [inhibitor, single point]

Continuation.

Compound	Potency	activity change, negative = inhibition
Clc1ccc(CSc2snnc2-c2ccccc2)c(Cl)c1	inactive	–
Nc1nc(SCC(=O)Nc2ccc(OCc3ccccc3)cc2)n[nH]1	inactive	–
Cc1ccccc1OCC(=O)OCC(=O)Nc1ccc2c(c1)OCCO2	inconclusive: 35.5 µM [inhibitor, single point]	–
COc1cc2c(cc1OC)C(c1ccc(Br)cc1)CC(=O)N2 (stereo not drawn)	inconclusive: 6.31 µM [inhibitor, single point]	–
O=C(NCc1ccccc1Cl)c1ccc2c(=O)n(CCCN3CCCC3=O)c(=S)[nH]c2c1	inconclusive: 39.8 µM [inhibitor, single point]	–
CN(C)/C=N/c1nc2nccc(-c3ccc(F)cc3)n2n1	inconclusive: 7.08 µM [inhibitor, partial curve, poor fit]	–
COc1ccccc1N1CCN(CC(=O)Nc2cccc(F)c2)CC1	inconclusive: 20 µM [inhibitor, single point]	–
Cc1cccc(NC(=O)N(Cc2nc3ccccc3c(=O)[nH]2)C2CCCC2)c1	inconclusive: 0.631 µM [inhibitor, full curve, poor fit]	–
CN1CCN(c2ncc3nc(-c4ccc(Cl)cc4)c(=O)n(C)c3n2)CC1	inconclusive: 31.6 µM [inhibitor, partial curve]	–
[O-][n+]1onc2c1CCC(=N/O)/C2=N\Nc1ccccc1	inconclusive: 39.8 µM [inhibitor, single point]	–
Cc1ccc(S(=O)(=O)N(CCC(=O)N2CCOCC2)c2ccccc2)cc1	inactive	–
O=C1C2CCCN2C(=O)N1CCCN1CCN(c2cccc(Br)c2)CC1 (stereo not drawn)	inconclusive: 39.8 µM [inhibitor, single point]	–
CN1CCN(NS(=O)(=O)c2ccc(Cl)s2)CC1	inactive	–
O=C(CN1C(=O)COc2ccc(Cl)cc21)Nc1ccc(N2CCOCC2)cc1	inconclusive: 0.562 µM [inhibitor, full curve, poor fit]	–
O=C(NCc1ccccc1F)C1CCCN(c2cnccn2)C1 (stereo not drawn)	inconclusive: 0.891 µM [inhibitor, full curve, poor fit]	–
Cc1ccccc1S(=O)(=O)N1[C@@H](c2ccc(Cl)cc2)C(C(=O)O)=CC[C@H]1c1ccc(Cl)cc1	inconclusive: 39.8 µM [inhibitor, single point]	–
CCOc1ccc(S(=O)(=O)NCc2ccncc2)cc1	inactive	–
Cc1nc(SCC(=O)c2ccccc2)c(C#N)c(-c2ccco2)c1C(=O)NCc1ccco1	inactive	–
Cc1ccc(-n2nnnc2-c2cnc3ccc(Cl)cc3c2-c2ccccc2)cc1	inconclusive: 25.1 µM [inhibitor, partial curve]	–
N#CCCn1c(=O)c(-c2cccs2)nc2cnc(OCc3ccccc3)nc21	inconclusive: 39.8 µM [inhibitor, single point]	–
O=C(NCc1ccccc1Cl)c1ccc(NC(=O)N2CCCCc3ccccc32)cc1	inactive	–
COc1cc(-c2noc(C)c2/C=C/c2cccc([N+](=O)[O-])c2)cc(OC)c1OC	inconclusive: 10 µM [inhibitor, partial curve]	–
